Values of other authors, collected in US4824669A, “Formulations of coenzyme Q10 for intravenous use” (Board of Regents, The University of Texas System, priority 1987, dated 1989).
The name of at least one read-out is uncertain.

Conditions: oral, human subjects; cited from earlier work

COC1=C(OC)C(=O)C(C/C=C(\C)CC/C=C(\C)CC/C=C(\C)CC/C=C(\C)CC/C=C(\C)CC/C=C(\C)CC/C=C(\C)CC/C=C(\C)CC/C=C(\C)CCC=C(C)C)=C(C)C1=O [CoQ10, 2,3-dimethoxy-5-methyl-6-decaprenyl benzoquinone]
time of second peak of plasma CoQ10: about 24 hours
